The values that follow are results of earlier work, collected in patent publication US20260216341A1, “KETO ACID BIOPOLYMERS AND POLYOL KETO ESTERS AND USES THEREOF” (ATOSSA THERAPEUTICS, INC., priority 2023, published 2026).

The conditions of the data set: scale 0 to 100.

With `OC[C@@H](O)[C@@H](O)CO` [erythritol], the Glycemic index is 0. Consider `O=C[C@H](O)[C@@H](O)[C@H](O)[C@H](O)CO` [glucose, reference compound], for which the Glycemic index is recorded as 100. Take `OCC(O)CO` [glycerol]: the Glycemic index was 3. `OC[C@@H](O)[C@@H](O[C@@H]1O[C@H](CO)[C@H](O)[C@H](O)[C@H]1O)[C@H](O)[C@@H](O)CO` [lactitol]: the Glycemic index is recorded as 6. Consider `OC[C@@H](O)[C@@H](O[C@H]1O[C@H](CO)[C@@H](O)[C@H](O)[C@H]1O)[C@H](O)[C@@H](O)CO` [maltitol], for which the Glycemic index is given as 35. On to `OC[C@@H](O)[C@@H](O)[C@H](O)[C@H](O)CO` [mannitol], for which the Glycemic index was 0.

For the compound `OC[C@@H](O)[C@@H](O)[C@H](O)[C@@H](O)CO` [sorbitol], the Glycemic index is 9. With `OC[C@@H](O)[C@H](O)[C@@H](O)CO` [xylitol], the Glycemic index was 13. Turning to isomalt, the Glycemic index is reported as 9.
